Measured values as given in patent publication US5385918A (Miles Inc., priority 1993, dated 1995).

test: general procedure: solution-phase peptide synthesis; 1-(3-dimethylaminopropyl)-3-ethylcarbodiimide methiodide / hydroxybenzotriazole; conditions: coupling step

| Substance | step yield |
| --- | --- |
| 1-[1-[2-(S)-[[1-[1-[(1,1-Dimethylethoxy)carbonyl]-L-phenylalanyl]-L-asparag inyl]amino]-4-methylpentyl]-L-proline]-L-isoleucine Phenylmethyl Ester | 72% |
| 1-[1-[2-(S)-[[2-(S)-[[(1,1-Dimethylethoxy)carbonyl]amino]-1-oxo-3-cyclohexy lpropyl]amino]-3-methylpentyl]-L-proline]-L-isoleucine Benzylamide | 53% |
| 1-[1-[2-[[3-Cyclohexyl-2-(S)-[[(1,1-dimethylethoxy)-carbonyl]amino]-1-oxopr opyl]amino]-4-methylpentyl]-L-proline]-L-isoleucine Phenylmethyl Ester | 64% |
| 1-[1-[2-(S)-[[4-Amino-2-(S)-[[(1,1-dimethylethoxy)-carbonyl]amino]-1,4-diox obutyl]amino]-4-methylpentyl]-L-proline]-L-isoleucine Phenylmethyl Ester | 57% |

same assay, conditions: late stage modification step

| Substance | step yield |
| --- | --- |
| 1-[1-[2-(S)-[[2-(S)-amino-3-cyclohexyl-1-oxopropyl]-amino]-4-methylpentyl]- L-proline]-L-isoleucine Phenylmethyl Ester | 94% |
| 1-[1-[2-(S)-[[1-[2-(S)-Amino-1-Oxo-3-phenylpropyl]-L-asparaginyl]amino]-4- m ethylpentyl]-L-proline]-L-isoleucine Phenylmethyl Ester | 95% |
